# Tests used:
# [1] = general procedure: Fmoc solid-phase peptide synthesis; Rink-amide PEG-PS resin, Champion (Biosearch Technologies, 0.28 mmol/g); Rink-amide PS resin (0.47 mmol/g); Rink-amide P; HATU/DIEA with HOBt; DIPC/HOAt for manual couplings; conditions: whole synthesis, scale of the general procedure 150 μmol; for final HPLC purity: Acquity UPLC Waters, BEH300 C4, 45 °C, 0.1% TFA
# [2] = Fmoc solid-phase peptide synthesis; MBHA polystyrene resin (0.21 mmol/g); HATU/DIEA with HOBt; DIPC/HOAt for manual couplings; conditions: whole synthesis, scale 0.15 mmol
Substance,final HPLC purity [1],isolated yield [1],isolated mass [2] [mg]
Ac-His^1-Ala^2-Gln-Gly-Thr-Phe-Thr-Ser-Asp-Lys^10(γGlu-γGlu-C16)-Ser-Lys-Tyr-Leu-Asp^15-Glu^16-Arg-Ala-Ala-Gln-Asp-Phe^22-Val^23-Gln-Trp^25-Leu-Leu-Asp-Thr-CONH2,>90% pure,Yield 10%,–
His^1-D-Ser^2-Gln-Gly-Thr-Phe-Thr-S er-Asp-Lys^10(γGlu-C16)-Ser-Lys-Tyr-Leu-Asp-Val-Arg-Ala-Ala-Gln-Asp-Phe^22-Val^23-Gln-Trp-Leu-Leu-Asp-Thr-CONH2,>90% pure,Yield 27%,–
His^1-D-Ser^2-Gln-Gly-Thr-Phe-Thr-Ser-Asp-Lys^10(γGlu-C16)-Ser-Lys-Tyr-Leu-Asp-Ala-Arg-Ala-Ala-Gln-Asp-Phe^22-Val^23-Gln-Trp-Leu-Leu-Asp-Thr-CONH2,95% pure,Yield 21%,–
His^1-D-Ser^2-Gln-Gly-Thr-Phe-Thr-Ser-Asp-Lys^10(γGlu-γGlu-C16)-Ser-Lys-Tyr-Leu-Asp-Ala-Arg-Ala-Ala-Gln-Asp-Phe^22-Val^23-Gln-Trp-Leu-Leu-Asp-Thr-CONH2,>90% pure,The yield was 15%,–
His^1-D-Ser^2-Gln-Gly-Thr-Phe-Thr-Ser-Asp-Lys^10(γGlu-γGlu-C16)-Ser-Lys-Tyr-Leu-Asp-Glu-Arg-Ala-Ala-Gln-Asp-Phe^22-Val^23-Gln-Trp-Leu-Leu-Asp-Thr-CONH2,–,–,15
His^1-D-Ser^2-Gln-Gly-Thr-Phe-Thr-Ser-Asp-Lys^10(γGlu-γGlu-C16)-Ser-Lys-Tyr-Leu-Asp-Val-Arg-Ala-Ala-Gln-Asp-Phe^22-Val^23-Gln-Trp-Leu-Leu-Asp-Thr-CONH2,>90% pure,Yield 20%,–
His^1-D-Ser^2-Gln-Gly-Thr-Phe-Thr-Ser-Asp-Lys^10(γGlu-γGlu-C16)-Ser-Lys-Tyr-Leu-Glu^15-Ala^16-Arg-Ala-Ala-Gln-Asp-Phe^22-Val^23-Gln-Trp^25-Leu-Leu-Asp-Thr-CONH2,the purity >90%,The yield was 18%,–
His^1-D-Ser^2-Val-Gly-Thr-pFF^6-Thr-Ser-Asp-Lys^10(γGlu-γGlu-C16)-Ser-Lys-Tyr-Leu-Asp^15-Glu^16-Arg-Ala-Ala-Gln-Asp-Phe^22-Val^23-Gln-Trp^25-Leu-Leu-Asp-Thr-CONH2,>90% pure,Yield 12%,–
